# From paper PMC2738650
# Experiments:
# [1] = system: GST-KLF2; experiment: competition with a labelled probe; conditions: 200-fold excess unlabeled mutant vs biotinylated WT probe; LightShift Chemiluminescent EMSA Kit (Pierce), manufacturer's instructions; 10 ug protein; pH and temperature not stated; recombinant protein; protein details: GST (N-terminal, pGEX-4T-1); label: none (cold competitor)
# [2] = system: GST-KLF2; experiment: EMSA; conditions: 10 ug protein, LightShift Chemiluminescent EMSA Kit (Pierce), manufacturer's instructions, pH and temperature not stated, recombinant protein, protein details: GST (N-terminal, pGEX-4T-1), label: biotin (probe), unlabeled as competitor
Sequence,binding result [1],binding result [2]
ACTCACTACCGACTGTTTGCAAACAGCAGG (double strand) [CXCR4 promoter -204/-175 mutated CACCC (Cold MU Pr)],no binding,
ACTCACTACCGACCACCCGCAAACAGCAGG (double strand) [CXCR4 promoter -204/-175 CACCC probe (WT)],,binds

# For at least one entry, the source does not settle the construct or the ends of the probe. For some assays here: A negative result means that nothing was seen under these conditions.
